Measured values taken from PubChem BioAssay AID2417 (National Center for Advancing Translational Sciences (NCATS), 2010).
About 4,300 (3.1%) of roughly 140,000 compounds were called active. The inconclusive results got no clear call from the source; some entries with a clear call stand among them for comparison.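 The calls were made as follows: active = readout at or below -70, meaning at least 70% loss of cells showing the perinucleolar compartment, a nuclear body marking cancer cells; inconclusive = readout between -30 and a set limit; inactive = the rest.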

Experiment: High Content Assay for Compounds that inhibit the Assembly of the Perinucleolar Compartment;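 also: plate controls were DMSO wells for no effect and camptothecin positive control wells for full effect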
Settings: PC3M PTB-GFP, PNC prevalence imaging, 16 h; at 10 µM; hits give low values
Procedure, shortened: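 Compounds are pinned in duplicate onto adhered PC3M cells stably expressing GFP-tagged PTB and incubated 16 h at 37 C. Cells are then fixed, nuclei stained with Hoechst, and PNC-positive cells counted.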

Row | SMILES | activity change (PNC), negative = inhibition
1 | CCCc1nc2ccc(Br)cc2c(=O)n1-c1ccc([N+](=O)[O-])c(C(F)(F)F)c1 | active: -96.4%
2 | O=C(O)[C@H]1C[C@@H]1[C@H](NP(=O)(c1ccccc1)c1ccccc1)c1ccccc1 | active: -82.3%
3 | C=Cn1c(P(=S)(N2CCOCC2)N2CCOCC2)cc2c1CCCC2 | inconclusive: -34.2%
4 | CCOP(=S)(NN(Cc1ccccc1)C(=O)c1ccccc1)OCC | inconclusive: -31.8%
5 | CCN1/C(=C\C=C\C2=[N+](CC)c3ccccc3C2(C)C)C(C)(C)c2ccccc21 | inconclusive: -65.5%
6 | COc1ccccc1CCNC1CCC(C(C)(C)C)CC1 (stereo unspecified) | active: -112%
7 | COc1cc(CN2CC3CC(C2)c2cccc(=O)n2C3)cc(OC)c1OC (stereo unspecified) | inconclusive: -47.4%
8 | CCCC(=O)NC(Oc1ccccc1Cl)C(Cl)(Cl)Cl (stereo unspecified) | inconclusive: -56.6%
9 | CCCCn1c(O)c(C(C)=NCCCN(C)C)c(=O)[nH]c1=O | inconclusive: -30.3%
10 | C=C(C)c1cccc(C(C)(C)NC(=O)NC2CN3CCC2CC3)c1 (stereo unspecified) | active: -93.6%
11 | O=C1OCCN1P(=O)(c1ccccc1)c1ccccc1 | inconclusive: -43.8%
12 | COc1ccccc1N1CCN(Cc2ccccc2F)CC1 | inconclusive: -48.8%
13 | CCc1ccc(N2C(=O)NC(=O)/C(=C/c3cccn3CCOc3ccc(C)cc3)C2=O)cc1 | inconclusive: -40.7%
14 | Cc1ccc(OCC(=O)NCCN2CCN(C(=O)COc3ccc(C)cc3)CC2)cc1 | active: -107%
15 | O=c1[nH]c(=S)n(CCC2=CCCCC2)c(O)c1C=NCCCn1ccnc1 | inconclusive: -52%
16 | COC(=O)N(c1ccc(OC)cc1)P1(=S)OCCC(C)O1 (stereo unspecified) | inconclusive: -70.8%
17 | CN1CCC(O)(c2ccccc2)C(C(=O)c2ccccc2)C1 (stereo unspecified) | inactive: 26.6%
18 | Cc1cc(C=C2C(=O)N(C)C(=S)N(C)C2=O)c(C)n1C1CCCCC1 | inconclusive: -33.4%
19 | O=c1[nH]c(=O)n(C2CCCCC2)c(O)c1C=Nc1ccc(N2CCOCC2)cc1 | active: -97.4%
20 | COc1ccccc1-n1c(O)c(C=NCc2ccc3c(c2)OCO3)c(=O)[nH]c1=O | active: -107%
21 | COC(=O)C[C@]1(C(=O)OC)CN(C#N)N(c2ccc(Cl)cc2)C12c1ccccc1-c1ccccc12 | active: -100%
22 | CN1C2CCC1CC(OC(=O)c1ccc(Cl)cc1)C2 (stereo unspecified) | inactive: -13.5%
23 | CCC(=NCCO)c1c(O)n(-c2ccccc2)c(=O)[nH]c1=O | inconclusive: -60.5%

Row | SMILES | activity change (PNC), negative = inhibition
24 | COC(=O)C(c1ccccc1)N1CCCCCC1 (stereo unspecified) | inconclusive: -45.3%
25 | COC1=CC(=O)OC(/C=C/c2ccccc2)C1 (stereo unspecified) | inconclusive: -57.4%
26 | Cc1nn(C)c(C)c1P(=S)(c1c(C)nn(C)c1C)N(C)C | inconclusive: -30.8%
27 | CCN(CC)c1ccc(/C=C2/C(=O)NC(=O)N(CC3CCCO3)C2=O)cc1 (stereo unspecified) | inactive: 59.5%
28 | CN(C)CC1CSCCC1(O)c1ccccc1 (stereo unspecified) | inactive: -26.7%
29 | CCCCC(=O)N/N=C/c1c(O)n(C2CC2)c(=S)[nH]c1=O | inactive: -6.98%
30 | O=c1c2ccccc2nc(SCC2CCCCO2)n1-c1ccccc1 (stereo unspecified) | inactive: 5.3%
31 | CC(=O)C1C2c3ccccc3OC1(C)N=c1s/c(=C/c3cn(C)nc3C)c(=O)n12 (stereo unspecified) | inconclusive: -56.9%
32 | Cn1ncnc2c(=O)n(C)c(=O)nc1-2 | inconclusive: -41.7%
33 | Cc1cc(NC(=O)CCC(=O)N2CCC3(CC2)OCCO3)no1 | active: -84%
34 | OC(CNC1CCCCC1)c1ccccc1 (stereo unspecified) | inactive: 38.6%
35 | CC12CN3CN(C1)CC(C)(C3)C2=NO | inconclusive: -66.4%
36 | CSc1ccc(CNC2CN3CCC2CC3)cc1 (stereo unspecified) | active: -106%
37 | Oc1ccc(CC2CC3CCN2CC3)cc1O (stereo unspecified) | inconclusive: -61.4%
38 | Cc1ccc(-c2nc(N3CCOCC3)s[n+]2-c2ccccc2)cc1 | inactive: 24.2%
39 | Cc1ccc(N(C)C(=O)Oc2cccc3ccc(C)nc23)cc1 | inconclusive: -39.9%
40 | COc1ccc(N2C(=O)CC(N3CC=C(c4ccccc4)CC3)C2=O)cc1 (stereo unspecified) | inconclusive: -66.1%
41 | CC(C)(C)c1ccc(O)c(CN2CCN(c3ccccc3)CC2)c1 | inconclusive: -42.4%
42 | CCn1c(O)c(C=Nc2ccc(S(N)(=O)=O)cc2)c(=O)n(CC)c1=S | inconclusive: -34.5%
43 | O=C(c1cc(Br)ccc1Cl)N1CCC2(CC1)OCCO2 | inconclusive: -41.7%
44 | O=[N+]([O-])c1ccc(C2C3C(c4ccccc4)=NC4(CCCCC4)N32)cc1 (stereo unspecified) | inconclusive: -52.6%
45 | Cc1cc(OCCCC(=O)NCc2cccs2)ccc1Cl | inconclusive: -42.9%
46 | CC(=O)c1cccc(NC2=NCC(C)S2)c1 (stereo unspecified) | inconclusive: -74.8%

Quoted from above, compounds 39–42
Row | SMILES | activity change (PNC), negative = inhibition
39 | Cc1ccc(N(C)C(=O)Oc2cccc3ccc(C)nc23)cc1 | inconclusive: -39.9%
40 | COc1ccc(N2C(=O)CC(N3CC=C(c4ccccc4)CC3)C2=O)cc1 (stereo unspecified) | inconclusive: -66.1%
41 | CC(C)(C)c1ccc(O)c(CN2CCN(c3ccccc3)CC2)c1 | inconclusive: -42.4%
42 | CCn1c(O)c(C=Nc2ccc(S(N)(=O)=O)cc2)c(=O)n(CC)c1=S | inconclusive: -34.5%
